Experimental findings from PMC10163288 are described below.

B1: il10ra_site1_normal_mot_HHH_b1_02397_af2_000000085_0001_39_57_H_._HHH_b2_04508_0001_0000400009_0000002_0 (protein)
chain: SSSSDREEELKELLKELEELVEEGDRERAAKVAIRVLRLAFRANDPEAVRAVWRILREYLSSSSS
B2: il10ra_site1_normal_mot_HHH_b1_00666_000000226_0001_43_56_H_._7a3d71bd8e0044baaa50656571eb2fb7_0001_0001_0000100007_0000001_0 (protein)
chain: SEEEEVLEELIRRLKESGDPELRRLAEEIEELRKEDKQRALQLASAVALALGDEELVQLLWKVAL
B3: il10ra_site1_sap_16_mot_HHH_b2_07144_000000289_0001_1_18_H_._HHH_b2_05176_0001_0000100005_0000001_0_0001 (protein)
chain: SSSSDEANERVWELIRRVLELLAEGNPEEAREVLEEAHEIAEENNNRLLQIQIEFLERDLDSSSS
B4: il10ra_site1_normal_mot_e1dd4851c59bc1cdde016f988f6856bd_0001_1_000000200_0001_16_31_H_._HHH_b1_02795_0001_0000100003_0000001_1_af2pred_0001 (protein)
chain: SSSSSETEKLVREIAKLLHQLLREGNPEEAEKLTKEAEEELEELGDEEAVRMLRVILKLAISSSS
B5: il10ra_site1_normal_mot_fda5df8c19bda1ddfcc41857df859eb0_0001_1_000000120_0001_35_49_H_._HEEHE_1459_0001_0000300017_0000001_0_af2pred_dldesign_0_af2pred (protein)
chain: SKEDKMKLAFERLAAQAGVPRFTVEVKDGKATVTLTGDAAAVAAARTAIEAAAELMQVEIEITVE
B6: il10ra_site1_normal_mot_HHH_b2_00273_000000062_0001_23_39_H_._HHH_b2_06821_0001_0000300032_0000001_0 (protein)
chain: SSSSEIEEFIEEVEERVRELVERGDTEEALQLLWEAAKLVAENNDEEALRILMELLRLVFRSSSS
B7: il10ra_site1_sap_21_mot_HHH_b2_00800_af2_000000047_0001_1_20_H_._HHH_b2_03457_af2_0001_0000400023_0000001_0_0001 (protein)
chain: SSSSDEWYEKLKKLIEEIVKAERNNDPELVEELLKELEELIEQRNDWAARFDLELLERAHSSSSS
B8: il10ra_site1_normal_mot_HHH_b1_05056_000000217_0001_1_20_H_._HHH_b1_06984_0001_0000200007_0000002_0 (protein)
chain: SSSSDRVEELLEEAEEAAERGDEERALELLLEATHFALQLGDPELLQEVWEVVKEVERLLSSSSS
B9: il10ra_site1_normal_mot_HHH_b2_00984_000000042_0001_1_20_H_._HHH_b1_07795_af2_0001_0000700037_0000002_0 (protein)
chain: SSSSDEEERVEELLEELEELLKRNDEEEFSRVAQEAVRLAFRAGNAELLREIWELIRKLRSSSSS
B10: il10ra_site1_normal_mot_HHH_b1_02397_af2_000000085_0001_39_57_H_._HHH_b1_02630_0001_0000200012_0000001_0 (protein)
chain: SSSSDEEEEEVRRLLEEIEKLIEEGDPEKVARLLIEVLRLVFQIGNDELIQEVWRLAKLIASSSS
B11: il10ra_site1_normal_mot_HHH_b2_07006_000000108_0001_1_19_H_._HHH_b2_03086_0001_0000200010_0000001_0_af2pred_0001 (protein)
chain: SSSSSDEEEVRERIEELLEEAKHVDLEEALKLIREAHKLAVEIGDPELLKLVAKVLRELLSSSSS
B12: il10ra_site1_sap_15_mot_HHH_b1_05357_000000034_0001_23_39_H_._HHH_b2_00918_0002_0000100001_0000001_0_0001 (protein)
chain: SSSSDERQRVLRLLIEIFRLMLRGDHEEARELLEEVERLAEELGDEALRKAVEIYEQALKSSSSS
B13: il10ra_site1_sap_15_mot_HHH_b2_00597_000000260_0001_41_55_H_._HHH_b2_05338_0001_0000200028_0000001_1_0001 (protein)
chain: SEEEFVKIAVEAAAEIANVPSFSVSFSNGTVEVTIEGDSPAARELERMVRFQAMALGVEVHVEIE
B14: il10ra_site1_sap_10_mot_HHH_b2_00943_af2_000000149_0001_1_17_H_._HHH_b2_02363_0001_0000300025_0000001_0_0001_af2pred_0001 (protein)
chain: SSSSDEKERVAQLSREIAELLEEGDREEAEKLLEEVEELAEELGDERLKLHVRFLKALLDSSSSS
B15: il10ra_site1_sap_15_mot_HHH_b2_02386_000000054_0001_1_20_H_._HHH_b1_07590_af2_0001_0000300009_0000001_0_0001 (protein)
chain: QEHTLIEAAVRLFALAARLSDVEVEFSNGKVEVTINGTSESAERLRRWLEIVARAHNLEVEVETE
B16: il10ra_site1_sap_15_mot_HHH_b2_02053_af2_000000006_0001_3_19_H_._HHH_b2_06464_0001_0000100006_0000002_0_0001 (protein)
chain: SSSSSHAERSAEIFLKAIKDALKAGDDEYARMALRFLKWLAEAANNEEVREIAEEARELIGSSSS
B17: il10ra_site1_sap_23_mot_HHH_b1_04771_000000013_0001_40_56_H_._HHH_b1_00861_0001_0000600044_0000002_0_0001 (protein)
chain: SSSSSEEKEELLRLLMELARALIRGDEEEARELLEELKELAEETNDEAAKKAVEIVEQALKSSSS
B18: il10ra_site1_sap_18_mot_39ab2cb694c8b9c1dc7e65c0d672c93e_0001_000000036_0001_53_65_H_._HHH_b1_04212_0001_0000500037_0000001_0_0001 (protein)
chain: SSSSDEELEEALRLSIEAFRAALRGNPEEAEKLLEEALQLAEEGGDERLAKQIESLLRALKSSSS
B19: il10ra_site1_sap_20_mot_HHH_b1_03531_000000273_0001_41_54_H_._HHH_b1_05519_0001_0000300028_0000001_0_0001 (protein)
chain: SSSSSEERREVFELIERAIKLHADGNREEAEEVLERAEEIAREAGDMLLLVQLEFLLRLIESSSS

Some of the results follow.

In this assay the target is il10ra, Q13651. Kind of assay: yeast display titration.
B1: the “apparent Kd” value was “inactive: no binding seen”.

With B2, the “apparent Kd” value is “inactive: no binding seen”.

For B3, the “apparent Kd” value was “inactive: no binding seen”.

As to B4, the “apparent Kd” value is “inactive: no binding seen”.

In the case of B5, the “apparent Kd” value is “inactive: no binding seen”.

For the molecule B6, the “apparent Kd” value is “inactive: no binding seen”.

In the case of B7, the “apparent Kd” value is “inactive: no binding seen”.

Take B8: the “apparent Kd” value is “inactive: no binding seen”.

In the case of B9, the “apparent Kd” value was “inactive: no binding seen”.

Consider B10, for which the “apparent Kd” value was “inactive: no binding seen”.

Regarding B11, the “apparent Kd” value was “inactive: no binding seen”.

On to B12, for which the “apparent Kd” value is “inactive: no binding seen”.

For the molecule B13, the “apparent Kd” value was “inactive: no binding seen”.

Regarding B14, the “apparent Kd” value is “inactive: no binding seen”.

B15: the “apparent Kd” value is “inactive: no binding seen”.

Regarding B16, the “apparent Kd” value is “inactive: no binding seen”.

As for B17, the “apparent Kd” value was “inactive: no binding seen”.

In the case of B18, the “apparent Kd” value is “inactive: no binding seen”.

For B19, the “apparent Kd” value was “inactive: no binding seen”.
